Results are given in words; binding and its absence hold for the method and conditions named. In cells and extracts the contact can be indirect. Here binding means that the protein was enriched with, or labelled near, the bait; the list need not be complete.
Molecular target: SFB-UBE2T (ubiquitin-conjugating enzyme E2 T), stable clone in HEK293T (UniProt Q9NPD8)
Experiment: affinity purification with mass spectrometry; tandem affinity purification from HEK293T stable clones of SFB-UBE2T: NETN lysate, streptavidin beads 4 h at 4 °C, elution with 2 mg/ml biotin, S protein agarose 3 h, eluate to LC/MS/MS

Protein sequences, listed by entry. Tags and fused reporters are not part of them.
UniProt Q9NPD8: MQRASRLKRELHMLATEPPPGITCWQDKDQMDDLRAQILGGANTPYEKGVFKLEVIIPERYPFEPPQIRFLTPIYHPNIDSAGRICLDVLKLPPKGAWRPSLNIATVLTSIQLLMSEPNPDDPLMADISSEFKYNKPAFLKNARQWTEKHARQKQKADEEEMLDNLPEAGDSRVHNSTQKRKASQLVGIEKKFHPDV

binding	Binder
binds	FANCG (protein, UniProt O15287 1-622) MSRQTTSVGSSCLDLWREKNDRLVRQAKVAQNSGLTLRRQQLAQDALEGLRGLLHSLQGLPAAVPVLPLELTVTCNFIILRASLAQGFTEDQAQDIQRSLERVLETQEQQGPRLEQGLRELWDSVLRASCLLPELLSALHRLVGLQAALWLSADRLGDLALLLETLNGSQSGASKDLLLLLKTWSPPAEELDAPLTLQDAQGLKDVLLTAFAYRQGLQELITGNPDKALSSLHEAASGLCPRPVLVQVYTALGSCHRKMGNPQRALLYLVAALKEGSAWGPPLLEASRLYQQLGDTTAELESLELLVEALNVPCSSKAPQFLIEVELLLPPPDLASPLHCGTQSQTKHILASRCLQTGRAGDAAEHYLDLLALLLDSSEPRFSPPPSPPGPCMPEVFLEAAVALIQAGRAQDALTLCEELLSRTSSLLPKMSRLWEDARKGTKELPYCPLWVSATHLLQGQAWVQLGAQKVAISEFSRCLELLFRATPEEKEQGAAFNCEQGCKSDAALQQLRAAALISRGLEWVASGQDTKALQDFLLSVQMCPGNRDTYFHLLQTLKRLDRRDEATALWWRLEAQTKGSHEDALWSLPLYLESYLSWIRPSDRDAFLEEFRTSLPKSCDL
binds	FANCA (protein, UniProt O15360 1-1455) MSDSWVPNSASGQDPGGRRRAWAELLAGRVKREKYNPERAQKLKESAVRLLRSHQDLNALLLEVEGPLCKKLSLSKVIDCDSSEAYANHSSSFIGSALQDQASRLGVPVGILSAGMVASSVGQICTAPAETSHPVLLTVEQRKKLSSLLEFAQYLLAHSMFSRLSFCQELWKIQSSLLLEAVWHLHVQGIVSLQELLESHPDMHAVGSWLFRNLCCLCEQMEASCQHADVARAMLSDFVQMFVLRGFQKNSDLRRTVEPEKMPQVTVDVLQRMLIFALDALAAGVQEESSTHKIVRCWFGVFSGHTLGSVISTDPLKRFFSHTLTQILTHSPVLKASDAVQMQREWSFARTHPLLTSLYRRLFVMLSAEELVGHLQEVLETQEVHWQRVLSFVSALVVCFPEAQQLLEDWVARLMAQAFESCQLDSMVTAFLVVRQAALEGPSAFLSYADWFKASFGSTRGYHGCSKKALVFLFTFLSELVPFESPRYLQVHILHPPLVPGKYRSLLTDYISLAKTRLADLKVSIENMGLYEDLSSAGDITEPHSQALQDVEKAIMVFEHTGNIPVTVMEASIFRRPYYVSHFLPALLTPRVLPKVPDSRVAFIESLKRADKIPPSLYSTYCQACSAAEEKPEDAALGVRAEPNSAEEPLGQLTAALGELRASMTDPSQRDVISAQVAVISERLRAVLGHNEDDSSVEISKIQLSINTPRLEPREHMAVDLLLTSFCQNLMAASSVAPPERQGPWAALFVRTMCGRVLPAVLTRLCQLLRHQGPSLSAPHVLGLAALAVHLGESRSALPEVDVGPPAPGAGLPVPALFDSLLTCRTRDSLFFCLKFCTAAISYSLCKFSSQSRDTLCSCLSPGLIKKFQFLMFRLFSEARQPLSEEDVASLSWRPLHLPSADWQRAALSLWTHRTFREVLKEEDVHLTYQDWLHLELEIQPEADALSDTERQDFHQWAIHEHFLPESSASGGCDGDLQAACTILVNALMDFHQSSRSYDHSENSDLVFGGRTGNEDIISRLQEMVADLELQQDLIVPLGHTPSQEHFLFEIFRRRLQALTSGWSVAASLQRQRELLMYKRILLRLPSSVLCGSSFQAEQPITARCEQFFHLVNSEMRNFCSHGGALTQDITAHFFRGLLNACLRSRDPSLMVDFILAKCQTKCPLILTSALVWWPSLEPVLLCRWRRHCQSPLPRELQKLQEGRQFASDFLSPEAASPAPNPDWLSAAALHFAIQQVREENIRKQLKKLDCEREELLVFLFFFSLMGLLSSHLTSNSTTDLPKAFHVCAAILECLEKRKISWLALFQLTESDLRLGRLLLRVAPDQHTRLLPFAFYSLLSYFHEDAAIREEAFLHVAVDMYLKLVQLFVAGDTSTVSPPAGRSLELKGQGNPVELITKARLFLLQLIPRCPKKSFSHVAELLADRGDCDPEVSAALQSRQQAAPDADLSQEPHLF
binds	FANCL (protein, UniProt Q9NW38 1-375) MAVTEASLLRQCPLLLPQNRSKTVYEGFISAQGRDFHLRIVLPEDLQLKNARLLCSWQLRTILSGYHRIVQQRMQHSPDLMSFMMELKMLLEVALKNRQELYALPPPPQFYSSLIEEIGTLGWDKLVYADTCFSTIKLKAEDASGREHLITLKLKAKYPAESPDYFVDFPVPFCASWTPQSSLISIYSQFLAAIESLKAFWDVMDEIDEKTWVLEPEKPPRSATARRIALGNNVSINIEVDPRHPTMLPECFFLGADHVVKPLGIKLSRNIHLWDPENSVLQNLKDVLEIDFPARAILEKSDFTMDCGICYAYQLDGTIPDQVCDNSQCGQPFHQICLYEWLRGLLTSRQSFNIIFGECPYCSKPITLKMSGRKH
binds	FANCB (protein, UniProt Q8NB91 1-859) MTSKQAMSSNEQERLLCYNGEVLVFQLSKGNFADKEPTKTPILHVRRMVFDRGTKVFVQKSTGFFTIKEENSHLKIMCCNCVSDFRTGINLPYIVIEKNKKNNVFEYFLLILHSTNKFEMRLSFKLGYEMKDGLRVLNGPLILWRHVKAFFFISSQTGKVVSVSGNFSSIQWAGEIENLGMVLLGLKECCLSEEECTQEPSKSDYAIWNTKFCVYSLESQEVLSDIYIIPPAYSSVVTYVHICATEIIKNQLRISLIALTRKNQLISFQNGTPKNVCQLPFGDPCAVQLMDSGGGNLFFVVSFISNNACAVWKESFQVAAKWEKLSLVLIDDFIGSGTEQVLLLFKDSLNSDCLTSFKITDLGKINYSSEPSDCNEDDLFEDKQENRYLVVPPLETGLKVCFSSFRELRQHLLLKEKIISKSYKALINLVQGKDDNTSSAEEKECLVPLCGEEENSVHILDEKLSDNFQDSEQLVEKIWYRVIDDSLVVGVKTTSSLKLSLNDVTLSLLMDQAHDSRFRLLKCQNRVIKLSTNPFPAPYLMPCEIGLEAKRVTLTPDSKKEESFVCEHPSKKECVQIITAVTSLSPLLTFSKFCCTVLLQIMERESGNCPKDRYVVCGRVFLSLEDLSTGKYLLTFPKKKPIEHMEDLFALLAAFHKSCFQITSPGYALNSMKVWLLEHMKCEIIKEFPEVYFCERPGSFYGTLFTWKQRTPFEGILIIYSRNQTVMFQCLHNLIRILPINCFLKNLKSGSENFLIDNMAFTLEKELVTLSSLSSAIAKHESNFMQRCEVSKGKSSVVAAALSDRRENIHPYRKELQREKKKMLQTNLKVSGALYREITLKVAEVQLKSDFAAQKLSNL
